Assay results published in PubChem BioAssay AID1347426 (Functional Genomics Laboratory (NCATS/FGL), 2020).
Among all 31,000 sequences or so, about 1,400 (4.5%) were called active.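 How the source made its calls: active means median seed-adjusted z-score above 1 or below -1; inactive means the rest.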 Some of the results follow.

Experiment: Novel Modifiers of Survival Motor Neuron (SMN) Protein: Gene Identification via Genome-wide siRNA Screen;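 further: luminescence tracks full-length SMN protein made from the SMN2 reporter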
Details: HEK293T SMN2-luciferase reporter, siRNA knockdown, 72 h; actives lie on both sides
How it was run: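 Genome-wide siRNA screen (10418 genes, 3 siRNAs each, 1 pmol per well) by reverse transfection in HEK293T cells stably carrying an SMN2-luciferase reporter; luminescence after 72 hours, normalized to negative-control siRNA, log10-transformed, MAD-scored.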
In the case of AGAACGACACCGUCAAGUATT against PROKR1, the median seed-adjusted z-score is reported as inactive: -0.507.
For GACUUGCACUGGGAACCAATT against NPNT, the median seed-adjusted z-score was inactive: 0.164.
For GCAAGUUUAUGCUAGCUCUTT against FMO5, the median seed-adjusted z-score was inactive: 0.0069.
For GAAUGUCACCGGAAAUCCATT against RANGAP1, the median seed-adjusted z-score was inactive: -0.0379.
For CUACCGGAGUCAACAGUAATT against ARGFX, the median seed-adjusted z-score was inactive: 0.273.
In the case of CCACCACUCCUUUCCCUAUTT against SCD, the median seed-adjusted z-score is reported as inactive: -0.982.
In the case of GAAGAUCAGCAAACGCAAATT against NRF1, the median seed-adjusted z-score is reported as inactive: 0.608.
With AGAGCGACCUCACCACCAATT against RAB1B the median seed-adjusted z-score was active: 1.55.
For GGAUUGAAGACGAUAUGGATT against ITGA6, the median seed-adjusted z-score was inactive: -0.224.
For CCACCAUUCUAAUCGAUUUTT against PPP2R3C, the median seed-adjusted z-score was inactive: 0.295.
In the case of CAGAGACCUUCAAACAGCATT against SLC27A3, the median seed-adjusted z-score is reported as inactive: -0.341.
With GGACCAAGAGUUCCCAUUATT against RAB19 the median seed-adjusted z-score was inactive: -0.0516.
In the case of GAUGUCUCCUUUAUCGAUATT against ACOT9, the median seed-adjusted z-score is reported as inactive: 0.58.
In the case of CACUAUAUCAAUUACCGAATT against THRB, the median seed-adjusted z-score is reported as inactive: 0.324.
For GGACAAAGUGUUAAUUACATT against DUSP16, the median seed-adjusted z-score was inactive: 0.
In the case of CCUUAAAGUCUACACCCAATT against TMEM123, the median seed-adjusted z-score is reported as inactive: 0.292.
In the case of CUAUACCUGCGUAGAUAUATT against EFEMP1, the median seed-adjusted z-score is reported as inactive: 0.0157.
In the case of AAGGUAAAAUUGAAGAGUUTT against SERPINB9, the median seed-adjusted z-score is reported as inactive: 0.
In the case of GCCCUGGGUGGAUACUUGATT against PIM3, the median seed-adjusted z-score is reported as active: -1.01.
In the case of GAAACAACUUGAUUUCGAATT against PCDHB8, the median seed-adjusted z-score is reported as active: 1.15.
With AGCUCUUUGCUACAGAUGATT against ACAD8 the median seed-adjusted z-score was active: 1.06.
In the case of CAGUCGUUGCUGUCAAAAATT against RGS9, the median seed-adjusted z-score is reported as inactive: 0.0665.
In the case of GCCGGUUUUUCAGCUCAAATT against NEK7, the median seed-adjusted z-score is reported as inactive: 0.
For UGUGGAACAUUAUCAGGAATT against ALG2, the median seed-adjusted z-score was inactive: 0.631.
For AGAUCAUCUUUAUUGUCGUTT against GPR15, the median seed-adjusted z-score was inactive: 0.101.
With GCAGUAAGAUGGGAGCUUUTT against PLA2G4F the median seed-adjusted z-score was inactive: -0.0231.
For GAGUCGGCAUAGCUAUAUUTT against CDKL5, the median seed-adjusted z-score was inactive: -0.256.
For GCCUCAUCGUGGUUAGCAATT against ASRGL1, the median seed-adjusted z-score was inactive: 0.
With GCGAUACAACUGAUCCAGATT against SLC22A13 the median seed-adjusted z-score was inactive: 0.904.
In the case of ACACUGCCCGAAGUCCUUUTT against ZNF575, the median seed-adjusted z-score is reported as inactive: 0.458.
In the case of GCAGUGAUUCUGUAUCCGATT against VPS54, the median seed-adjusted z-score is reported as inactive: -0.128.
For GGAUGAUCGAGACCAGUUUTT against XPO4, the median seed-adjusted z-score was inactive: 0.616.
For GGAACUAGAUGUCAUGUAUTT against VILL, the median seed-adjusted z-score was inactive: 0.518.
For CAGUCUUACUGGGAACAAUTT against TGDS, the median seed-adjusted z-score was inactive: -0.196.
In the case of GAGCACUUCUACAAUAGAATT against GALNT4, the median seed-adjusted z-score is reported as inactive: 0.419.
In the case of GGAACGUGGUACUUAGUUATT against HMGCS1, the median seed-adjusted z-score is reported as inactive: 0.0596.
In the case of ACUUGUCCUUAAUAAAGAATT against IL5, the median seed-adjusted z-score is reported as inactive: -0.229.
With AACCGCUGCUUGAAAGAUATT against PI3 the median seed-adjusted z-score was inactive: 0.493.
For GGCCCAAGAUCUUCCCUAATT against GPR179, the median seed-adjusted z-score was inactive: -0.513.
With CCUCAAUGUCUGUAUGGAUTT against FOLR2 the median seed-adjusted z-score was inactive: -0.0835.
In the case of GAGUAGAUGCUGCUAUUUATT against PPM1E, the median seed-adjusted z-score is reported as inactive: -0.00802.
With CCCUAAUAGAGGACACUAUTT against PCDHGA1 the median seed-adjusted z-score was inactive: -0.319.
With GAACUUCUACUUUAACAAATT against HS3ST1 the median seed-adjusted z-score was active: 1.21.
With CCAUCGUGUCUGUAGAGGATT against RNF123 the median seed-adjusted z-score was inactive: 0.
With CCAUUGCCGAAAUCUAAAATT against DEK the median seed-adjusted z-score was inactive: 0.374.
For GCUUCCCGAUUAACUGAAATT against MECP2, the median seed-adjusted z-score was inactive: -0.332.
With CAAGGAUAUUGGUGAUUAATT against GTF2H3 the median seed-adjusted z-score was inactive: 0.356.
With GGUACUCACUCACCAAUGATT against NPR1 the median seed-adjusted z-score was inactive: -0.823.
For GAAUCUUGCAUCAAUAUAATT against CLDN23, the median seed-adjusted z-score was inactive: 0.817.
In the case of CCUUUGGAUGGAAUACUUATT against TKTL2, the median seed-adjusted z-score is reported as inactive: -0.0379.
In the case of CAGUGUUCCUGACUUCGAATT against COPS3, the median seed-adjusted z-score is reported as inactive: 0.176.
For GGCCCUACCACAUCCAGAATT against ACSBG1, the median seed-adjusted z-score was inactive: 0.113.
For CACCCUUAUUGAUUCUGAUTT against DHRS13, the median seed-adjusted z-score was inactive: 0.192.
For CUACGACUCAAGAACUAUATT against LARS, the median seed-adjusted z-score was inactive: -0.788.
In the case of GCAUCAUCAAUGGAUCCGATT against KLK5, the median seed-adjusted z-score is reported as inactive: 0.
With GCAUCAGCAUAAGUCCAUUTT against SIAH1 the median seed-adjusted z-score was active: 1.5.
For CGCUACACCCUGCACUAUATT against TRAP1, the median seed-adjusted z-score was inactive: -0.637.
With GCACAACACUCGCUCCAAUTT against GLT8D1 the median seed-adjusted z-score was active: 1.22.
In the case of GAACAGAUAUCUAAAACGATT against SNX2, the median seed-adjusted z-score is reported as inactive: -0.569.
With CAGCGGAUGUGUUCAGUCUTT against PKMYT1 the median seed-adjusted z-score was inactive: 0.65.
With GGCUGUUCUCCGAGACAAATT against SNED1 the median seed-adjusted z-score was inactive: 0.148.
With GGAUCACACCUACAGCAAATT against ACTL6B the median seed-adjusted z-score was inactive: 0.0703.
In the case of CGAUUUGCGCAUUUCCUGGTT against FOXD4L2, the median seed-adjusted z-score is reported as inactive: -0.118.
With UGAACAUCUUGUCCUUUUATT against CERK the median seed-adjusted z-score was inactive: 0.
For GGCUGGAAAAUACUCGCUATT against SRL, the median seed-adjusted z-score was inactive: 0.148.
With CAAUCUACAGAAUUCUACATT against IMMP1L the median seed-adjusted z-score was inactive: -0.444.
In the case of CUACAUCAAGAAGACAUAUTT against ABHD2, the median seed-adjusted z-score is reported as active: -1.21.
With GGAUCAUGACAUUCCAUAATT against DGCR8 the median seed-adjusted z-score was inactive: -0.266.
In the case of GGGUUUAUUUGCAAGACGATT against PDPK1, the median seed-adjusted z-score is reported as inactive: 0.0807.
With ACAGGAACGAAAUCCGGAATT against PLEKHJ1 the median seed-adjusted z-score was inactive: -0.213.
For CCCUGACGGUAGAUACAUUTT against TRPM7, the median seed-adjusted z-score was inactive: -0.575.
In the case of GGGACCUACUCAAAAGUCATT against TSSK3, the median seed-adjusted z-score is reported as inactive: -0.381.
With GGAUUGCGCUGAAGACUAUTT against UNC13B the median seed-adjusted z-score was inactive: -0.0216.
In the case of ACAUCACGCGGGCUUCUAATT against HS6ST3, the median seed-adjusted z-score is reported as inactive: -0.405.
For GGAGGUUAUAAUUAUGUUATT against ZNF716, the median seed-adjusted z-score was inactive: 0.
For GCUGAGAUAUCUAGGAGAATT against RPS6KA5, the median seed-adjusted z-score was inactive: -0.0588.
With GGAAUUACCUGUCCAUCUUTT against CAPN1 the median seed-adjusted z-score was inactive: 0.282.
In the case of GCUCAUGUCAGAGUGCGAATT against HOMER2, the median seed-adjusted z-score is reported as inactive: 0.522.
In the case of CCGGGAUCAUAAAAUCACATT against SLC9A8, the median seed-adjusted z-score is reported as inactive: 0.367.
With GUAUCGUCCGUGUCUCAGATT against SLC26A8 the median seed-adjusted z-score was inactive: -0.145.
In the case of GGCUACAAGUAGAGAGUUUTT against ESPL1, the median seed-adjusted z-score is reported as inactive: 0.871.
With GGUGAAGAUUGGUGACUAUTT against AATK the median seed-adjusted z-score was inactive: -0.621.
With CGGACUGGGAAGUUACUAATT against GNL2 the median seed-adjusted z-score was inactive: 0.739.
With GGAGAUCUAAAAGUGAAUATT against KLRF1 the median seed-adjusted z-score was inactive: 0.00941.
For GGGAAGAAGUUCACCGCAATT against DTX1, the median seed-adjusted z-score was inactive: -0.0757.
For GGAAAUCGUCGUCAACCCATT against GALNT14, the median seed-adjusted z-score was inactive: 0.
For GGAUAGCAGCUAUUAGGGATT against MBTPS2, the median seed-adjusted z-score was inactive: -0.324.
With GCAGCAACAUUAUUGUCUUTT against CLDN17 the median seed-adjusted z-score was inactive: 0.
For GGUCAUUACCAUAUCUGAUTT against MNDA, the median seed-adjusted z-score was inactive: 0.232.
For CGCCCAUUGUACGUGCUAATT against VPS18, the median seed-adjusted z-score was inactive: 0.181.
In the case of GAAGGAUCCUGGACAGGGATT against AQP10, the median seed-adjusted z-score is reported as inactive: -0.09.
For GGGCUGGAAUUACUAUGGATT against CCNH, the median seed-adjusted z-score was inactive: -0.659.
With GGCUGUACAUAGUCCUUUUTT against SNRPB the median seed-adjusted z-score was active: -3.17.
In the case of GGUUUGAACAUAAAGAGUUTT against ST6GAL2, the median seed-adjusted z-score is reported as inactive: 0.054.
For CAAUCAACUGUAGAGAGUATT against ZNF343, the median seed-adjusted z-score was inactive: 0.0696.
For “GGACCUCUCAUGAAAGUGATT against CSGALNACT2”, the median seed-adjusted z-score was inactive: 0.236.
In the case of CAUCUGGAAUUAACUGGAUTT against NUDT1, the median seed-adjusted z-score is reported as inactive: -0.175.
In the case of AGAGAAAGCUGUACAGAGATT against ZNF705A, the median seed-adjusted z-score is reported as inactive: 0.669.
For GAACAGGAGAUGUUGCACATT against ZBTB32, the median seed-adjusted z-score was inactive: 0.458.
In the case of GCGUGAAUUUUUCUAUACATT against CRY1, the median seed-adjusted z-score is reported as inactive: 0.0564.
With GCAUUAGAAACUUACAAGATT against TROVE2 the median seed-adjusted z-score was inactive: 0.399.
With GAAAGUUGAUGACGUGUUATT against ZNF248 the median seed-adjusted z-score was inactive: -0.0486.
For GGAUGCCAUCGUUUUUGUATT against CCL17, the median seed-adjusted z-score was inactive: 0.178.
With GCUUCCUCCAAGCAAGAGATT against ZNF174 the median seed-adjusted z-score was inactive: 0.035.
For GCACUCUGAAGAUCGAAUATT against HNRNPL, the median seed-adjusted z-score was active: 1.04.
In the case of CACAAGAUAUCAGGAGAAATT against FCRL2, the median seed-adjusted z-score is reported as inactive: -0.294.
In the case of AGCUCAUGCUGUCUAGCAATT against DUSP18, the median seed-adjusted z-score is reported as inactive: 0.13.
With GCCCUGAUUUGUGCAAUGATT against PPP1R16B the median seed-adjusted z-score was inactive: -0.892.
